Data as given in US10710962B2, “Zwitterionic reagents” (Siemens Healthcare Diagnostics Inc., priority 2010, dated 2020).

How the values were obtained:
[1] = Fractional non-specific binding (fNSB) of chemiluminescent conjugates to M280 solid phase
[2] = Fractional non-specific binding (fNSB) of chemiluminescent conjugates to PMP solid phase
[3] = Fractional non-specific binding (fNSB) of chemiluminescent conjugates to M270 solid phase
BGG-NSP-DMAE = experiment: Zwitterion label incorporation into acridinium ester labeled BGG, measured by mass spectroscopy; design: species or system bovine
[4] = NSP-DMAE-AVD labeled with 10 equivalents of the zwitterion compound
[5] = NSP-DMAE-AVD labeled with 20 equivalents of the zwitterion compound
[6] = conjugate Z3-PFP Modified (25 equivalents)
[7] = conjugate Z3-PFP Modified (25 equivalents), listed as NSP-DMAE-avidin

Compound | fNSB [1, 4] | fNSB [1, 5] | fNSB [2, 4] | fNSB ([2]; NSP-DMAE-AVD labeled with 10 equivalents of the zwitterion compound, listed as ZPB-PFP) | fNSB [2, 5] | fNSB [3, 4] | fNSB [3, 5] | # of Zwitterion-Containing Compounds Incorporated by Conjugate (BGG-NSP-DMAE; input 10 equivalents) | # of Zwitterion-Containing Compounds Incorporated by Conjugate (BGG-NSP-DMAE; input 20 equivalents) | fNSB ([2]; NSP-DMAE-AVD, 0 zwitterionic labels in input (control), listed as NSP-DMAE-avidin) | fNSB ([2]; conjugate Unmodified) | fNSB [2, 6] | fNSB [2, 7] | fNSB ([3]; conjugate Unmodified) | fNSB [3, 6] | fNSB [3, 7] | fNSB ([2]; NSP-DMAE-AVD labeled with 20 equivalents of the zwitterion compound, listed as Z4-PFP) | fNSB ([2]; NSP-DMAE-AVD labeled with 10 equivalents of the zwitterion compound, listed as Z2-PFP)
CCCOP(=O)([O-])OCC[N+](C)(C)CCCC(=O)Oc1c(F)c(F)c(F)c(F)c1F [Compound 4c] | 1.0 × 10^−4 | 7.7 × 10^−5 | 5.7 × 10^−4 | 5.7×10^−4 | 3.4 × 10^−4 | 4.6 × 10^−4 | 1.6 × 10^−4 | 6 | 8.4 |  |  |  |  |  |  |  |  | 
NSP-DMAE-AVD: egg white avidin labeled with acridinium ester NSP-DMAE; tested unmodified and further labeled with zwitterion compounds |  |  |  |  |  |  |  |  |  | 1.3×10^−3 | 1.3 × 10^−3 | 1.7 × 10^−4 | 1.7×10^−4 | 6.3 × 10^−2 | 5.2 × 10^−4 | 5.2×10^−4 |  | 
C[N+](C)(CCCCS(=O)(=O)[O-])CCCC(=O)Oc1c(F)c(F)c(F)c(F)c1F [Compound 3c] |  | 8.7 × 10^−5 |  |  | 5.0 × 10^−4 |  | 2.5 × 10^−4 | 3.7 |  |  |  |  |  |  |  |  | 5.0×10^−4 | 
C[N+](C)(CCCC(=O)Oc1c(F)c(F)c(F)c(F)c1F)CCCS(=O)(=O)[O-] [Compound 2c] | 8.8 × 10^−5 | 6.5 × 10^−5 | 4.8 × 10^−4 |  | 2.6 × 10^−4 | 3.2 × 10^−4 | 1.2 × 10^−4 | 9 | 13 |  |  |  |  |  |  |  |  | 
C[N+](C)(CCCC(=O)Oc1c(F)c(F)c(F)c(F)c1F)CCS(=O)(=O)[O-] [Compound 1d] | 8.4 × 10^−5 |  | 4.1 × 10^−4 |  |  | 2.3 × 10^−4 |  | 5.3 |  |  |  |  |  |  |  |  |  | 4.1×10^−4
